Source: publication doi:10.1101/2023.11.29.569073
No constants are given. Whether binding was seen depends on the method and setting. In cells and extracts the contact can be indirect. Binding calls can cover weak binding; strength is not graded here. Tags and fused reporters may be left off the sequences shown.

What follows are substances tested against T1, CPK28-nLuc (Arabidopsis thaliana) (UniProt Q9FKW4) (assay: split reporter).
T1 sequence: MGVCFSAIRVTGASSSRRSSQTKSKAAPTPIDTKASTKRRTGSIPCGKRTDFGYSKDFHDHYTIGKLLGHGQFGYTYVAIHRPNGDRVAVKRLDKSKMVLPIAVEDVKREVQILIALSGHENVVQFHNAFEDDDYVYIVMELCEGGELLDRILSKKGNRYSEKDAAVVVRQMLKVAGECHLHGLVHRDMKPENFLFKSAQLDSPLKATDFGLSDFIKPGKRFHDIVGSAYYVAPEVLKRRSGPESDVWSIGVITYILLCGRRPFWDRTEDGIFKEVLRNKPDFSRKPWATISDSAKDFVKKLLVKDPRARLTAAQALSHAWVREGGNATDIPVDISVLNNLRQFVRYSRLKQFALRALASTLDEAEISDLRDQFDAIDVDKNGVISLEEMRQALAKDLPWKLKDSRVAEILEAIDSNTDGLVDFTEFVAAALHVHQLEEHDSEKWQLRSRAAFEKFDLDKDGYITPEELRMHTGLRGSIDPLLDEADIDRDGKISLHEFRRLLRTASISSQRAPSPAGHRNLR

binding, binds:
cLuc-MRK1 (Arabidopsis thaliana) (enzyme)
cLuc-RAF26 (Arabidopsis thaliana) (enzyme)
cLuc-RAF39 (Arabidopsis thaliana) (enzyme)
